Assay results as given in PubChem BioAssay AID995 (National Center for Advancing Translational Sciences (NCATS), 2007).
Out of some 72,000 compounds screened, about 710 (0.99%) were called active. These results got no clear call from the source, so the numbers are uncertain. Calls follow the shape of the dose curve; as a rule, active = well fitted inhibition curve with a large enough effect; inconclusive = small, poorly fitted or top-dose-only effect; inactive = no such curve, though single readings can be large or run the other way. Some tests of the compounds listed are not included; inactive here does not mean inactive elsewhere.
Potency is read from the fitted curve at half-maximal effect.

Assay: qHTS Assay for Inhibitors of the ERK Signaling Pathway using a Homogeneous Screening Assay; also: nearly all actives have a fitted effect of over 55% in size
Details: HEK293-V1b, vasopressin-stimulated pERK AlphaScreen
With `O=C(OC1CN2CCC1CC2)C(CO)(c1ccccc1)c1ccccc1` (stereo unspecified) the Potency was inconclusive: 39.8 µM.
